Some of the results follow.

This assay deals with T1, OsSMF1 (Oryza sativa, UniProt Q6ZLB0 1-436).
T1 sequence: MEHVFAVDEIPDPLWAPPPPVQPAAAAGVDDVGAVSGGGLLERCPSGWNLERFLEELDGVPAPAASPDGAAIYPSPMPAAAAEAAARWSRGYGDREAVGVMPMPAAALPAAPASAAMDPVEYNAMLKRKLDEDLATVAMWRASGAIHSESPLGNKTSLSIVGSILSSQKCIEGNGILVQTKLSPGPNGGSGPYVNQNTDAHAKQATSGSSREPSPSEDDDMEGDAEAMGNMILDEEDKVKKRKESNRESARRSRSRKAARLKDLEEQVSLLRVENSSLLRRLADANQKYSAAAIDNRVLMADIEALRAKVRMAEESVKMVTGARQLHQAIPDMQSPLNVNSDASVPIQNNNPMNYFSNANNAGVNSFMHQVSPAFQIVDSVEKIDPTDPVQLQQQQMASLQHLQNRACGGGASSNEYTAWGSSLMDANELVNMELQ
Description: protein-binding microarray (RPBM); PBS, 2% BSA, 51.3 ng/ul salmon testes DNA, 50 uM zinc acetate, 200 nM TF, 25 C, 1 h; high values mean tight binding. Particulars: protein: recombinant; tags: N-terminal polyhistidine and DsRed monomer fusion (pET32a); chain copies: 2; label: CyDye5-dUTP incorporated in the synthesized complementary strand; 3' TTTTT single-stranded linker to array surface; dsDNA, one strand shown. The method in brief: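 Transcription factors were made in E. coli BL21-CodonPlus as N-terminal fusions to a polyhistidine tag and DsRed, then purified on Ni–NTA. After primer extension with Cy5-dUTP and blocking with 2% BSA, a custom Agilent array was exposed for 1 h at 25 °C to 200 nM protein in PBS, 2% BSA, salmon testes DNA and 50 µM zinc acetate. Washed arrays were scanned on an Axon 4000B, and the binding signal is per-feature fluorescence intensity in arbitrary units.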
With “TTGTAAGTACACTAGGTGAAACATCTTTTGTGGAATAAAGCGGAGTCACCTAGTGCAG”, the binding signal is 19900 fluorescence intensity (a.u.).
Turning to “TTTATAATTTTCTTATGGTATTTTCTACTAGTATCCGTTGCGGAGTCACCTAGTGCAG”, the binding signal is 29400 fluorescence intensity (a.u.).
Then “ATTGGGAGGGAGGTAATACATGGAATTAGGTTTCTTGTGGCGGAGTCACCTAGTGCAG”, with 3280 fluorescence intensity (a.u.).
In the case of “CAACGTATTTGTCTTATAAGACAAATCTACACAAACAATTCGGAGTCACCTAGTGCAG”, the binding signal was 3630 fluorescence intensity (a.u.).
Then “GGAGGGGTGGAAGGAGGGTGGTAGGAGGAATTAGATGTGTCGGAGTCACCTAGTGCAG”, with 3230 fluorescence intensity (a.u.); and “GTTCCCCTCGTGCCGCCCGCCTCCGCCGTCGCGTCCCCGCCGGAGTCACCTAGTGCAG”, with 3710 fluorescence intensity (a.u.); and “GGTGTCACCTCCTCTATCTTAGTAACTTGGCCAACTCTTCCGGAGTCACCTAGTGCAG”, with 15700 fluorescence intensity (a.u.).
As to “CACCGCACGTCACCCGCGAAGCTCTCATGGCCTCACACACCGGAGTCACCTAGTGCAG”, the binding signal was 4370 fluorescence intensity (a.u.).
For “TGTGCCTTGTCGCCGTGATTAGCACTTTAAACAAGTGTTCCGGAGTCACCTAGTGCAG”, the binding signal is 3160 fluorescence intensity (a.u.).
Then “GAAATTAGAAACACATGGATGATAATGTTCGATCCTTGAACGGAGTCACCTAGTGCAG”, with 30100 fluorescence intensity (a.u.).
Under “AGAGGGAAAGCACGCTACTGCTACTCGTCACCGCAGCGCACGGAGTCACCTAGTGCAG” stands 3300 fluorescence intensity (a.u.); under “GAGCGAGAGGAGGGATATATACACGTGTTAACAATCCAAGCGGAGTCACCTAGTGCAG”, 5780 fluorescence intensity (a.u.).
Then “CTAGCGACGAAAGCGACTCGTCAGAGGGCCACGTGCAGCTCGGAGTCACCTAGTGCAG”, with 3710 fluorescence intensity (a.u.); and “GTTTTCTCTTAGTTTGTCCATCTTTGTCATTTTGCGCTGTCGGAGTCACCTAGTGCAG”, with 3990 fluorescence intensity (a.u.).
For “CTCGTTCACTTGGGTGCTAATTAAACATCAAATCTAAGCTCGGAGTCACCTAGTGCAG”, the binding signal was 16500 fluorescence intensity (a.u.).
Under “GTCGCCATGACGGAGTCGCGCCGCCCGCCGTCCGGCTGCGCGGAGTCACCTAGTGCAG” stands 3280 fluorescence intensity (a.u.); under “TCTCCTGCTCACGTGATTCATACTCTCCCTACTCCCCTCTCGGAGTCACCTAGTGCAG”, 3450 fluorescence intensity (a.u.); under “CTCGTGCATGCATTTGTGCCCCAGCACTGTCTTCGAAGGACGGAGTCACCTAGTGCAG”, 4160 fluorescence intensity (a.u.).
In the case of “TGCAATAATTTGGACTCATGGAGTTTGAAGATGGGCTCTGCGGAGTCACCTAGTGCAG”, the binding signal was 3310 fluorescence intensity (a.u.).
On to “TGGCAGTGTCCTTTGCCAGCTTGCACTGATAGTTGCACTTCGGAGTCACCTAGTGCAG”, for which the binding signal was 3170 fluorescence intensity (a.u.).
On to “ATGATCCTGTAGTGGATCCGTGAGACAGGTGTCAACCTTTCGGAGTCACCTAGTGCAG”, for which the binding signal is 3260 fluorescence intensity (a.u.).
Under “TTGCCATCTCATTTCTTGCATCATCTCCTCCCAATTCCAACGGAGTCACCTAGTGCAG” stands 3320 fluorescence intensity (a.u.); under “CGTGCATCCGCTTGTGCTGCCACTTCGACAGCCCGCCCGGCGGAGTCACCTAGTGCAG”, 3570 fluorescence intensity (a.u.).
Under “CTCTCGCCGCCACCCCGGCCCGCGCGCGCAAGCAACCTTACGGAGTCACCTAGTGCAG” stands 3890 fluorescence intensity (a.u.); under “TGGGACCCACGCTGAGCCAGCTGCCACGTCAGATAAAACCCGGAGTCACCTAGTGCAG”, 16500 fluorescence intensity (a.u.); under “ATAAAAGATGCTGACATTATATCAGTCGTGCAGCATGGAACGGAGTCACCTAGTGCAG”, 3390 fluorescence intensity (a.u.).
Then “AGGCGGCGCGGGCGCTGCTCGTCATCAACGACTACTTCTCCGGAGTCACCTAGTGCAG”, with 4130 fluorescence intensity (a.u.); and “GCTGCCAGCGCCGCCGCCACCTGTGTCGGCACGCGAGCGCCGGAGTCACCTAGTGCAG”, with 3350 fluorescence intensity (a.u.); and “ATCGCCGTCGGCGCCTTCCTCTGGGCCGCCGCCACGCTCCCGGAGTCACCTAGTGCAG”, with 23400 fluorescence intensity (a.u.).
In the case of “GCACCGGCGGCGTGTGTGAATGTGTCACGGCTGCGACGCACGGAGTCACCTAGTGCAG”, the binding signal was 3660 fluorescence intensity (a.u.).
Take “TTCTTACGGGCAATGGCTAACGATATGCGATGACATGTTGCGGAGTCACCTAGTGCAG”: the binding signal was 4020 fluorescence intensity (a.u.).
Under “GAATTCCAATCAGAGACACGTCCATGTTCCATCATCGCCCCGGAGTCACCTAGTGCAG” stands 5070 fluorescence intensity (a.u.); under “AGCCGGATCACCAGGAGGCGGGGACGGGGATGGCCGTCATCGGAGTCACCTAGTGCAG”, 3960 fluorescence intensity (a.u.); under “GTTATGGGTTTCATTTACCAGCCACCTCTTAGTCCACACCCGGAGTCACCTAGTGCAG”, 3910 fluorescence intensity (a.u.).
Under “GTCTCACTGACAGGTGGGACCCACGGCGCAGCGTCACGCGCGGAGTCACCTAGTGCAG” stands 4470 fluorescence intensity (a.u.); under “GAGGCCGGGCACTGCCACGCAGGTCATCCGCTCATCTACCCGGAGTCACCTAGTGCAG”, 3910 fluorescence intensity (a.u.).
Then “GTCTGAAGTTCTTTCTCAAATGACAACCTCATTATCATGGCGGAGTCACCTAGTGCAG”, with 3520 fluorescence intensity (a.u.); and “GCGTACGCCGCGGCCGCCAAGTGGTGGCCAGCGGCGCCGCCGGAGTCACCTAGTGCAG”, with 4580 fluorescence intensity (a.u.).
With “CGCCTCCACGGCGCCCACGCTCATCGCCACCATCCACGACCGGAGTCACCTAGTGCAG”, the binding signal was 3700 fluorescence intensity (a.u.).
Regarding “TGAGCGCATCCGCCTCCTGGTGACGTTTGCTCTGACGCGTCGGAGTCACCTAGTGCAG”, the binding signal was 8530 fluorescence intensity (a.u.).
“CGCCGCAAGCACCAAAACCCAGATGACGCTGTGCTCGCCGCGGAGTCACCTAGTGCAG”: the binding signal was 3450 fluorescence intensity (a.u.).
Consider “CATGGCTAGCTGGTTGCACGCAGTGACGTACTACAATAGACGGAGTCACCTAGTGCAG”, for which the binding signal was 3910 fluorescence intensity (a.u.).

The values are drawn from article PMC7819943, “Rice protein-binding microarrays: a tool to detect cis-acting elements near promoter regions in rice”.
